Reference: paper PMC8468827
These are yes or no findings as the source states them, for the method shown. In cells and extracts the contact can be indirect. Here binding means that the protein was enriched with, or labelled near, the bait; the list need not be complete.

Sequences of proteins named here, by UniProt entry; tags and fusion partners are left off.
UniProt Q9VQ93: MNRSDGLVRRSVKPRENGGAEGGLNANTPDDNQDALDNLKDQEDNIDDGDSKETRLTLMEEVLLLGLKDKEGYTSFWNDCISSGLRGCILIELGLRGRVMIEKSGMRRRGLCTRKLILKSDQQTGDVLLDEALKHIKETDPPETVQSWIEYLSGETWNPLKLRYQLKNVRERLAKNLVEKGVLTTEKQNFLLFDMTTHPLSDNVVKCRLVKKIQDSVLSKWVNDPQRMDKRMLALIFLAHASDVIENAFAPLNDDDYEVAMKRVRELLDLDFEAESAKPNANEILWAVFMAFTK

B1: β’COP (protein, UniProt O62621 1-914)
chain: MPLKLDIKRRLTSRSDRVKCVDLHPAEPWMLCALYNGHVHIMNYENQQMVKDFEVCDVPVRSARFVARKNWILTGSDDMQIRVFNYNTLEKVHSFEAHSDYLRCIAVHPTQPLVLTSSDDMLIKLWNWEKMWACQRVFEGHTHYVMQIVFNPKDNNTFASASLDRTVKVWQLGSNFANFTLEGHEKGVNCVDYYHGGDKPYLISGADDRLVKIWDYQNKTCVQTLEGHAQNISAVCFHPELPIVLTGSEDGTVRIWHSGTYRLETCLNYGFERVWTISSMRGTNNVALGYDEGSIIIKVGREEPAMSMDVVGSKIIWAKHSEMQQVNLKTIADGTEIKDGERLPVATKDMGACEIYPQTIAHNPNGRFVVVCGDGEYIIYTSMALRNKAFGSAQEFVWALESNEYAIRENNGTVRLFRNFKERKSFTPEYGAESIYGGYYFGVKTSSGLAFYDWETLQLVRRIEVQPKNVFWNESGSLVCLATDDSYFVLGVDTAQVANAVETKEGLEDDGVESAFNVLGEVSECVKTGLWVGDCFIYTNSVNRINYYVGGEIVTVSHLDRTMYLLGYVPKDNRIYLGDKELNVISFCLQLSVLEYQTAVMRRDFERADVVLPTIPKEHRTRVAHFLEKQGFKSQALQVSTDADHKFDLALQIGDLEIALKLARESENSQKWSQLADVASSKNNMSLVKECMQKANDLSGLLLLSTASGDAQLLEVVGAAGSAQGHHNLAFLSAFLRSDVERCLEILIETNRLPEAAFFARTYLPSQMSRIVELWREKLGKVNEKAGQSLADPAQYTNLFPGLGDALRVEQHLQEERARKAPARLAANLPLNSERHPLQELFAAEQGAAGQHLEEKVKPAYVPAQAVVSSSQVAEPTSAADDDDDLDLEIDGITLDDNIDTTDVNLDDDFLSDD
B2: Brother of tout-velu (Botv) (protein, UniProt Q9XZ08 1-972)
chain: MPPAYDLGHSGEAYQPLDTGSGGGNEACAPNSSSAQIRHSMGFRTSWMRQFRRYKLPMVLLMLLFLVSCLAYRILSVEQDAPPLDLHRSSPLLDAYEDFSAMRAGDLKMRIEEMVRIKSTVSVELRELESRRQKLQSDISQYNQKIEELKQELLREQTELERLKISVEQAQVAQREAVQRNTPDLALPRSLLPNTLPRKSNPITGGMAASCEMHNCFNHSRCSLTSGFPVYLYDPDEHSVQRKGYDIDGFLKTTLKQTLGYNAHIVKDPKHACIYLVLVGEALLEQDLLRNNRYAAQEAEHQQPSTPTLENDCPVDMEKLYSLPYWGGDGRNHVLLNLARRDLTSHRTNPLYRQNTMRAIVVQSAFEREQFRPGYDLIVPPILGPPGGDVWQECAEMVPARRKYLLTYQGELRPKQSSLNPLDAFILEHLADMAKGATQDQFVLQFQCVPATEQQEGDSLPDWTLCGSDSSRRQLLKDSTFSLILPPLNGRVSSTLMLARIYEALRSGAVPVILGADELRLPYAETVDWRRTALLLPKARITELHFLLRAVQDADLLLLRRQGRLIWERYLSSVQATVDTVIASLRDRLGIPPRPVPSVIAQSVFNSTFIPLKSDPPVGLDTEPEESLGPIEPPYPSPAFRRNYTILRMQAKEAWNDWLDPFYLYPQLPFDPALPSEAKFMGSHTGFRPIGKGLGGAGKEFGESLGGNYPREQFTIVMLTYEREQVLMDSLGRLYGLPYLHKVVVVWNSPKPPLDDLRWPDIGVPVAVLRAPRNSLNNRFLPFDVIETEAVLSVDDDAHLRHDEILFGFRVWREHRDRVVGFPGRYHAWDLGNPNGQWHYNSNYSCELSMVLTGAAFVHKYYLYLYTYHLPQAIRDKVDEYMNCEDIAMNFLVSHITRKPPVKVTSRWTFRCPGCPVSLSEDDTHFQERHKCINFFSRVFGYTPLLNTQYRADSILFKTRIPHDKQKCFKYI

Target: dGOLPH3-mRFP (Drosophila) (UniProt Q9VQ93)
Test: affinity purification with mass spectrometry; RFP-trap beads on lysate of 3000 adult testes expressing dGOLPH3-RFP (RFP alone as control); lysis buffer 25 mM Tris-HCl pH 7.4, 150 mM NaCl, 1 mM EDTA, 1% NP-40; washes at 4 °C; nanoLC-MS/MS

Row | Binder | binding
1 | B1 | binds
2 | B2 | binds
